Assay results published in PubChem BioAssay AID504327 (National Center for Advancing Translational Sciences (NCATS), 2011).
Where “and” joins values, the source holds several entries; their conditions need not be identical. Equal values may be shown once. Hit rate of the full screen: of about 390,000 compounds, about 820 (0.21%) were called active. The inconclusive results got no clear call from the source; some entries with a clear call stand among them for comparison. Calls come from the whole dose curve; as a rule, active = well fitted inhibition curve with a large enough effect; inconclusive = small, poorly fitted or top-dose-only effect, or another doubt; inactive = no such curve, though single readings can be large or run the other way. Where the call is inconclusive, the potency comes from a doubtful curve fit.

Sequences of proteins named here, by UniProt entry; tags and fusion partners are left off.
UniProt Q92830, whole entry, looked up: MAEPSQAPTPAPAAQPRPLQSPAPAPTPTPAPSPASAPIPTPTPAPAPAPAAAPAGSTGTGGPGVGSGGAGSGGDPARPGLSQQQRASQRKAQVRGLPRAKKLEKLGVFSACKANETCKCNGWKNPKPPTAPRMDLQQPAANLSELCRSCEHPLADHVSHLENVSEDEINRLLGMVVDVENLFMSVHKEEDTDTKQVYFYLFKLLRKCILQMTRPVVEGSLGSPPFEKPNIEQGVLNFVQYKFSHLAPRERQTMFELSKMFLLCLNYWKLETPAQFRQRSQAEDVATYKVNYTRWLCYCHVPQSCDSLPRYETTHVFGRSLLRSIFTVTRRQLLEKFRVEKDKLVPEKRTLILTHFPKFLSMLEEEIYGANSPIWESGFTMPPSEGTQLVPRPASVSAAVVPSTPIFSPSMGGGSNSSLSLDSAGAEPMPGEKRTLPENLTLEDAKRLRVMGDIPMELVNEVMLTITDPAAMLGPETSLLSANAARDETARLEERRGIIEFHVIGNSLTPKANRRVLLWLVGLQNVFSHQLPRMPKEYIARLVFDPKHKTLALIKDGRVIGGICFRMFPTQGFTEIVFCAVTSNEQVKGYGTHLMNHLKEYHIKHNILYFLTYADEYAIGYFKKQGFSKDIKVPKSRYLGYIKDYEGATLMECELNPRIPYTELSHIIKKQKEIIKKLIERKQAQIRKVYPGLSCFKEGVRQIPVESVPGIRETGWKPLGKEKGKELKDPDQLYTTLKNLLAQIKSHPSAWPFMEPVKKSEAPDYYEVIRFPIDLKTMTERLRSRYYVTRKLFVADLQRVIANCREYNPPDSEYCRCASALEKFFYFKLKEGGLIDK

target: Histone acetyltransferase KAT2A (Homo sapiens) (UniProt Q92830); test: qHTS Assay for Inhibitors of GCN5L2; conditions: GCN5L2 HAT assay, ThioGlo1 CoA-SH fluorescence; activity change, negative = inhibition: at 58.9 µM (top of the series) unless noted
Outline: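 Titration-based screen in which CoA formation is detected via maleimide probe ThioGlo1 (50uM) turning fluorescent on thiol reaction; substrates H3(1-25) 75uM and acetyl-CoA 70uM, GCN5L2 20nM, 20 min incubation at room temperature.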
% is set by controls: 0 for no effect and ±100 for the full control effect; potency is the fitted concentration of half-maximal effect.

| Structure (SMILES) | Potency | activity change, negative = inhibition |
| --- | --- | --- |
| CCOC(=O)COc1ccc2ccccc2c1/C=C/[N+](=O)[O-] | inactive | – |
| CCS(=O)(=O)C1=NSC2=NC(=O)/C(=C\c3ccc(OC(=O)c4ccco4)c(OC)c3)C(=N)N21 | inactive | – |
| Cc1ccc(S(=O)(=O)N(CC(=O)NCCSc2ccc(Cl)cc2)c2ccccc2C)cc1 | inactive | – |
| O=C(Nc1cccc(C(F)(F)F)c1)Nc1ccc2[nH]c(=O)[nH]c2c1 | inactive | – |
| c1ccc(-n2ncc3c2ncn2cnnc32)cc1 | inconclusive: 1.58 µM [inhibitor, single point] | – |
| COCCn1c(C)c(C)c(S(=O)(=O)c2ccccc2)c1N | inactive | – |
| COc1cccc(NC(=O)CN2CCN(S(=O)(=O)c3ccc(C(C)C)cc3)CC2)c1 | inconclusive: 31.6 µM [inhibitor, partial curve, poor fit] | – |
| CCN1C(=O)[C@H]2[C@H]3CN=C(SCC4CC4)N3[C@@](CC)(C(=O)OC)[C@H]2C1=O | inactive | – |
| Cc1cccc(C)c1-n1ncc(C(=O)NC2CCCC2)c1C1CCN(C(=O)OC(C)(C)C)CC1 | inactive | – |
| CC(=O)N1CCCN(Cc2cn(-c3ccc(C)cc3)nc2-c2ccc(F)cc2)CC1 | inconclusive: 8.91 µM [inhibitor, single point] | – |
| COc1ccc(CCNCC(=O)Nc2ccc(OC(F)(F)F)cc2)cc1OC | inactive | – |
| COc1ccc2nc(C)cc(SCC(=O)NNC(=O)COc3ccccc3)c2c1 | inconclusive: 3.98 µM [inhibitor, single point] | – |
| Cc1cccnc1NC(=O)Cn1nc([N+](=O)[O-])cc1C | inactive | – |
| Cc1cc(C)cc(NC(=O)C2C3C=CC(O3)C2C(=O)O)c1 (stereo unspecified) | inconclusive: 6.31 µM [inhibitor, single point] | – |
| Cc1nn(Cc2ccc([N+](=O)[O-])cc2)c(=O)n1-c1ccc(F)cc1 | inconclusive: 0.891 µM [inhibitor, single point] | – |
| S=C(NCc1cccnc1)Nc1ccc(Oc2ccccc2)cc1 | inactive | – |
| Cc1ccc(-c2nn(-c3ccc(F)cc3)cc2C(=O)N(C)CC(=O)Nc2ccc(N3CCOCC3)cc2)cc1 | inactive | – |
| O=C(CCN1C(=O)c2cccc3cccc(c23)C1=O)N1CCN(c2ccccc2F)CC1 | inactive | – |
| Cc1cccc(CCNC(=O)CC2C(=O)NCCN2Cc2ccc(F)c(F)c2)n1 (stereo unspecified) | inconclusive: 4.47 µM [inhibitor, single point] | – |
| COc1ccccc1N1CC(C(=O)Nc2nnc(SCC(=O)NCC3CCCO3)s2)CC1=O (stereo unspecified) | inconclusive: 12.6 µM [inhibitor, partial curve] | – |
| COc1ccc2oc(-c3ccc(C)c(NC(=O)CSc4ccc(Cl)cc4)c3)nc2c1 | inconclusive: 8.91 µM [inhibitor, single point] | – |
| C[C@H](O)C(=O)Nc1c(I)c(C(=O)NC(CO)CO)c(I)c(C(=O)NC(CO)CO)c1I | inactive | – |
| COc1ccc(CN2CCC(n3nccc3NC(=O)C3CC3)CC2)c(OC)c1OC | inconclusive: 0.1 µM [inhibitor, full curve, poor fit] | – |
| c1ccc(C(NCc2cccnc2)(c2ccccc2)c2ccccc2)cc1 | inconclusive: 28.2 µM [inhibitor, single point] and inconclusive: 31.6 µM [inhibitor, single point] | – |

Grouped by structure: the compounds so far with an aryl thioether with sulfur outside any ring.

| Structure (SMILES) | Potency | activity change, negative = inhibition |
| --- | --- | --- |
| Cc1ccc(S(=O)(=O)N(CC(=O)NCCSc2ccc(Cl)cc2)c2ccccc2C)cc1 | inactive | – |
| COc1ccc2nc(C)cc(SCC(=O)NNC(=O)COc3ccccc3)c2c1 | inconclusive: 3.98 µM [inhibitor, single point] | – |
| COc1ccccc1N1CC(C(=O)Nc2nnc(SCC(=O)NCC3CCCO3)s2)CC1=O (stereo unspecified) | inconclusive: 12.6 µM [inhibitor, partial curve] | – |
| COc1ccc2oc(-c3ccc(C)c(NC(=O)CSc4ccc(Cl)cc4)c3)nc2c1 | inconclusive: 8.91 µM [inhibitor, single point] | – |

Further entries.

| Structure (SMILES) | Potency | activity change, negative = inhibition |
| --- | --- | --- |
| OCCCc1nc2n(n1)C(c1ccccc1)C=C(c1ccccc1)N2 (stereo unspecified) | inconclusive: 14.1 µM [inhibitor, partial curve] | – |
| O=C(Cc1ccccc1)N1CCN(S(=O)(=O)c2cccc([N+](=O)[O-])c2)CC1 | inconclusive: 1.78 µM [inhibitor, single point] | – |
| N[C@H](C(=O)O)c1cc(O)cc(O)c1 | inconclusive: 39.8 µM [inhibitor, single point] | – |
| COCCNC(=O)C(OC(=O)c1cc2oc(C)cc2n1C)C(C)C (stereo unspecified) | inconclusive: 14.1 µM [inhibitor, partial curve] | – |
| O=C(Nc1cc(C(F)(F)F)cc(C(F)(F)F)c1)c1ccc(Cn2cc(C(F)(F)F)ccc2=O)cc1 | inconclusive: 7.08 µM [inhibitor, single point] | – |
| NS(=O)(=O)c1ccc(CCNS(=O)(=O)c2cccc(C(=O)O)c2)cc1 | inactive | – |
| CS(=O)(=O)N1CCN(c2ccccc2NC(=O)Nc2cccc(Cl)c2)CC1 | inactive | – |
| NC(=O)CNC(=O)[C@@H]1CC2(CC(c3cccc(Br)c3)=NO2)CN1C(=O)c1ccc(Br)cc1 (stereo partly specified) | inconclusive: 7.08 µM [inhibitor, partial curve, poor fit] | – |
| CCc1cc2c(-c3ccccc3)cc(=O)oc2cc1OC(=O)c1cccs1 | inactive | – |
| O=C(c1ccc2c(c1)OCCO2)N1CCN(S(=O)(=O)c2c(F)cccc2F)CC1 | inactive | – |
| COc1ccc(S(=O)(=O)NC(CC(=O)NCCc2ccc(OC)c(OC)c2)c2ccco2)cc1 (stereo unspecified) | inconclusive: 39.8 µM [inhibitor, single point] | – |
| CC(=O)c1c(N2CCOCC2)nc(=S)n(-c2cc(C)ccc2C)c1C | inconclusive: 0.891 µM [inhibitor, single point] | – |
| N#Cc1ccc(Sc2ccccn2)c([N+](=O)[O-])c1 | inactive | – |
| CC(=O)Oc1ccc(C(=O)Nc2ccccc2C(=O)Nc2ccc(C(=O)O)cc2)cc1 | inactive | – |
| O=C(O)CCC(=O)N1CCc2cc(S(=O)(=O)NCc3cccs3)ccc21 | inactive | – |
| COc1cc(NC(=O)c2cc(-c3ccccc3)on2)cc(OC)c1OC | inactive | – |
| Cc1nnc(SCC(=O)Nc2ccccc2)n1CCc1ccccc1 | inconclusive: 39.8 µM [inhibitor, single point] | – |
| CCOc1ccc(NC(=O)/C(C#N)=C/c2ccc(N3CCCC3)c(C)c2)cc1 | inactive | – |
| O=C1Nc2cc(C(=O)N3CCN(c4ccccc4F)CC3)ccc2NC1CSCc1ccccc1F (stereo unspecified) | inconclusive: 39.8 µM [inhibitor, single point] | – |
| CC1(C)[C@H]2CC[C@]1(C)[C@@H](OC(=O)C[N+]1(C)CCOCC1)C2 | inactive | – |
| O=C(CSc1nc(-c2ccc(F)cc2)nc2c1Cc1ccccc1O2)Nc1ccc(C(=O)O)cc1 | active: 14.1 µM | – |
| CCOC(=O)c1c(NC(=O)CSc2nnc(C)s2)sc2c1CCN(C)C2 | inactive | – |
| O=C(NC1CC1)C1CCN(S(=O)(=O)c2cc([N+](=O)[O-])ccc2Cl)CC1 | inconclusive: 14.1 µM [inhibitor, partial curve] | – |
| Cc1ccc(NC(=O)CN(C)C(=O)c2cccc(-n3cccc3)c2)cc1 | inconclusive: 25.1 µM [inhibitor, partial curve] | – |

| Structure (SMILES) | Potency | activity change, negative = inhibition |
| --- | --- | --- |
| CSc1nc(=NC(C)=O)ss1 | inconclusive: 20 µM [inhibitor, partial curve, poor fit] | – |
| COc1cc(OC)c(OC)cc1/C=N/NC(=O)c1cc(-c2cccn2C)n[nH]1 | inconclusive: 8.91 µM [inhibitor, single point] | – |
| C/C(=N\NC(=O)c1cccc(C)c1)c1cccc(NC(=O)c2ccco2)c1 | inconclusive: 31.6 µM [inhibitor, partial curve, poor fit] | – |
| COc1cccc(CN2C[C@]34C=C[C@@H](C[C@@H]3S2(=O)=O)O4)c1 | inconclusive: 22.4 µM [inhibitor, partial curve, poor fit] | – |
| Cc1ccc(NC(=O)Cn2c(=O)oc3cc(S(=O)(=O)N4CCCCCC4)ccc32)cc1Cl | inactive | – |
| NS(=O)(=O)c1ccc(NC(=O)CSC2CCCCC2)cc1 | inactive | – |
| CC(C)C(NS(=O)(=O)c1ccc2c(c1)oc(=O)n2C)C(=O)NCCc1ccc(Cl)cc1 (stereo unspecified) | inactive | – |
| CC(=O)/C(N=Nc1ccc(C(=O)O)cc1[N+](=O)[O-])=C(\C)O | inconclusive: 39.8 µM [inhibitor, single point] | – |
| COc1ccc(NC(=O)CSc2n[nH]c(-c3ccccn3)n2)cc1 | inactive | – |
| O=C(CNS(=O)(=O)c1ccccc1)Nc1ccc(F)cc1F | inconclusive: 0.708 µM [inhibitor, full curve, poor fit] | – |
| COC(=O)c1c(NC(=O)CN2C(=O)c3ccccc3C2=O)sc(Cc2ccc3c(c2)OCO3)c1C | inactive | – |
| CN(C)S(=O)(=O)c1ccc(C(=O)/C=C/c2cccnc2)cc1 | inactive | – |
| CCOc1ccc(NC(=O)n2ncc3c(C)cccc32)cc1 | inconclusive: 4.47 µM [inhibitor, single point] | – |
| CC(C)n1nnnc1SCC(=O)c1ccc2c(c1)OCCO2 | inactive | – |
| N/C(=N\c1nc2ccccc2o1)NC(=O)c1ccccc1 | inconclusive: 35.5 µM [inhibitor, partial curve] | – |
| CCOc1ccc(NC(=O)CCS(=O)(=O)c2ccc(Br)cc2)cc1 | inconclusive: 3.55 µM [inhibitor, partial curve] | – |
| O=C(COc1cccc2ccccc12)N1CCN(c2ccccc2)CC1 | – | inconclusive: -86% [inhibitor] [at 0.501 µM] |
| O=c1cc(O)nc(SCc2ccccc2Cl)[nH]1 | inconclusive: 3.55 µM [inhibitor, partial curve] | – |
| N#CC(C#N)=C1NC2(CCCCC2)Cc2ccccc21 | inactive | – |
| COc1ccc(Oc2ncc3nc(-c4ccc(OC)cc4)c(=O)n(CCC#N)c3n2)cc1 | inconclusive: 14.1 µM [inhibitor, partial curve] | – |
| COc1ccc(/C=C2/SC(=S)N(CC(=O)O)C2=O)cc1OCc1ccc(Cl)cc1 | inconclusive: 10 µM [inhibitor, partial curve, poor fit] | – |
| O=C(/C=C/c1ccco1)OCc1nnc(-c2ccc(Cl)cc2)o1 | inconclusive: 25.1 µM [inhibitor, single point] | – |
| COc1ccc(C2C(C#N)=C(N)N(c3cccnc3)C3=C2C(=O)CC(C)(C)C3)cc1OC (stereo unspecified) | inactive | – |
